Measurements published in publication PMC12400406 (Organic Letters, 2025).
Results are given in words; binding and its absence hold for the method and conditions named.

Target: CmnI (Saccharothrix mutabilis subsp. capreolus) (UniProt A6YEI0)
Test: SEC; CmnI alone; oligomeric state; both purified

B1: CmnI (enzyme, Saccharothrix mutabilis subsp. capreolus, UniProt A6YEI0 1-548, looked up)
chain: MTTETPATTGAPATTGAPAPPGRAEIVAAVLPVFAEVLDAPDLTPDSDFFVHGGNSLLAIRVAGRVGRRLGRQVPPAGVLKHPTPDLLAAHLEEEFRGGGAPPIPAPRAGAEADRRPSTAQERVWLLHQLDPDRLDHLVTVALDVAGTVDPAAFTAAWTAVVRRHEALRSRFVKADDDRVAVVVDAEAAPEISVLDLARFPAPVRDRLAEERVRLLRTTPIRLDTGPLARFALLRLADRRYRIELAVHHIVCDGWSLDTLLADFLDAYGRALAGRSPALPPPAVGFADYVAWERDVESSRWPDMAVRLARRFADRPADLPLPVDPVDVPAHEDGDDVTVHAPPGLAAAVERARTSFGHTALTFHLTALGVLLARITGVDDLVVAVPVAGRAQTEHEDLVGLFVNTALARVRLGGTSDVRVLLERNRDEVDELVDCQTFPFDRLVDLLGARRAGTRVPLARVSLAVQNFDDPGTPAPELGFTWQFRDPPERQSKFDLAFTVSDTDGLRLTVTYRPSLFRRATVAAWAGQYLVALEHVVRGVADPEGSAR
notes: CmnI, A domain-less NRPS module 3 (T-C didomain) of capreomycin biosynthesis, Saccharothrix mutabilis subsp. capreolus; calculated molecular weight of the apo-form construct 61 484.72 Da; also called A domain-less NRPS module CmnI; source: purified
Q: How did the binding turn out when B1 was run?
A: no binding
